# Experimental data reported in PubChem BioAssay AID588396 (Broad Institute, 2011).
# Listed are the inconclusive results; actives and inactives stand elsewhere.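 How the source made its calls: active means loss of yeast growth signal with half-maximal concentration no more than ten times the top tested dose, in every run; inconclusive means runs disagree, or a weak flat curve or poor fit; inactive means inactive in every run.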
# Test: growth inhibition of yeast expressing PfHsp90, dose response, antimalarial PfHsp90 inhibitor project, S. cerevisiae, BacTiter-Glo luminescence, dry powder samples (AID 588396)
# Conditions: S. cerevisiae expressing PfHsp90, BacTiter-Glo ATP luminescence, 48 h; at 26 µM (top of the series)
smiles,measurement,value
Cc1ccc(OCc2n[nH]c(=S)n2C2CCCCC2)cc1,"activity change, negative = inhibition",inconclusive: -99.6%
